Results deposited as PubChem BioAssay AID1224828 (NIAID, 2016).
The deposit covers about 17,000 reagents; below is a random part of them. 762 of them (4.5%) count as active. 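Active calls include both raised and lowered p65 entry, mostly lowered; wells with fewer than 50 cells lack a z-score.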 Raw values are not corrected between plates. Reagent sequences are not shown.

Aim: 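Knock-downs that increase or decrease LPS-induced p65 nuclear translocation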 (primary screen)
Cell system: mouse RAW264.7 G9 macrophage reporter cells (GFP-p65, Tnf promoter-mCherry)
Reagent: siRNA pool against mouse genes, 100 nM
Time to read-out: 2 days siRNA transfection, then 40 min LPS before fixation
Challenge: LPS (Salmonella minnesota R595) at 10 ng/ml
Measured: 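Imaged p65 nuclear translocation ratio, normalised to the plate median, converted to robust z-scores and averaged across two replicates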
Scale: p65 translocation robust z-score: higher = more nuclear NF-kappaB p65 after LPS than the plate median; nuclear/cytoplasmic p65 ratio: higher = more nuclear NF-kappaB p65
Call rule: 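Active if robust z is above 3.3 (negative regulators) or below -1.56, the Tlr4 control median (positive regulators); activity score 50 or more; control wells not called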
Calls: active = hit (p65 shift raised or lowered); inactive = no clear change

For Tecr (trans-2,3-enoyl-CoA reductase), the values are p65 translocation robust z-score 0.33; nuclear/cytoplasmic p65 ratio, rep 1 = 1.6; nuclear/cytoplasmic p65 ratio, rep 2 = 1.6; low cell count flag enough cells to score; inactive.
For Or10aa3 (olfactory receptor family 10 subfamily AA member 3), the entry reads nuclear/cytoplasmic p65 ratio, rep 1 = 1.72; nuclear/cytoplasmic p65 ratio, rep 2 = 1.25; low cell count flag fewer than 50 cells per well; well left out of scoring; inactive.
Gmfg (glia maturation factor, gamma) showed nuclear/cytoplasmic p65 ratio, rep 1 = 1.8; nuclear/cytoplasmic p65 ratio, rep 2 = 1.31; low cell count flag fewer than 50 cells per well; well left out of scoring; inactive.
Knock-down of Ctsg (cathepsin G) came out at: p65 translocation robust z-score 0.75; nuclear/cytoplasmic p65 ratio, rep 1 = 1.59; nuclear/cytoplasmic p65 ratio, rep 2 = 1.46; low cell count flag enough cells to score; inactive.
Gcg (glucagon) gave p65 translocation robust z-score -1.48; nuclear/cytoplasmic p65 ratio, rep 1 = 1.31; nuclear/cytoplasmic p65 ratio, rep 2 = 1.35; low cell count flag enough cells to score; inactive.
Knock-down of Dcbld1 (discoidin, CUB and LCCL domain containing 1) resulted in: p65 translocation robust z-score -0.46; nuclear/cytoplasmic p65 ratio, rep 1 = 1.46; nuclear/cytoplasmic p65 ratio, rep 2 = 1.52; low cell count flag enough cells to score; inactive.
Ghitm (growth hormone inducible transmembrane protein) showed p65 translocation robust z-score -0.1; nuclear/cytoplasmic p65 ratio, rep 1 = 1.47; nuclear/cytoplasmic p65 ratio, rep 2 = 1.55; low cell count flag enough cells to score; inactive.
Silencing of Ndufs4 (NADH:ubiquinone oxidoreductase core subunit S4) came out at: p65 translocation robust z-score 0.63; nuclear/cytoplasmic p65 ratio, rep 1 = 1.52; nuclear/cytoplasmic p65 ratio, rep 2 = 1.42; low cell count flag enough cells to score; inactive.
Sult1c2 (sulfotransferase family, cytosolic, 1C, member 2) gave p65 translocation robust z-score 0.05; nuclear/cytoplasmic p65 ratio, rep 1 = 1.46; nuclear/cytoplasmic p65 ratio, rep 2 = 1.21; low cell count flag enough cells to score; inactive.
Depletion of Kcna3 gave: p65 translocation robust z-score 0.39; nuclear/cytoplasmic p65 ratio, rep 1 = 1.52; nuclear/cytoplasmic p65 ratio, rep 2 = 1.44; low cell count flag enough cells to score; inactive.
Knock-down of Fam133b (family with sequence similarity 133, member B) came out at: p65 translocation robust z-score 2.22; nuclear/cytoplasmic p65 ratio, rep 1 = 1.66; nuclear/cytoplasmic p65 ratio, rep 2 = 1.75; low cell count flag enough cells to score; inactive.
After knock-down of Ccl7 (C-C motif chemokine ligand 7), the screen gave p65 translocation robust z-score 1.02; nuclear/cytoplasmic p65 ratio, rep 1 = 1.66; nuclear/cytoplasmic p65 ratio, rep 2 = 1.46; low cell count flag enough cells to score; inactive.
Kif13a (kinesin family member 13A) showed p65 translocation robust z-score -0.13; nuclear/cytoplasmic p65 ratio, rep 1 = 1.43; nuclear/cytoplasmic p65 ratio, rep 2 = 1.39; low cell count flag enough cells to score; inactive.
Knock-down of Bcap31 (B cell receptor associated protein 31) gave: nuclear/cytoplasmic p65 ratio, rep 1 = 1.66; nuclear/cytoplasmic p65 ratio, rep 2 = 1.61; low cell count flag fewer than 50 cells per well; well left out of scoring; inactive.
Knock-down of Mcfd2 (multiple coagulation factor deficiency 2) came out at: p65 translocation robust z-score -0.54; nuclear/cytoplasmic p65 ratio, rep 1 = 1.63; nuclear/cytoplasmic p65 ratio, rep 2 = 1.47; low cell count flag enough cells to score; inactive.
Knock-down of Ckap2l (cytoskeleton associated protein 2-like) gave: nuclear/cytoplasmic p65 ratio, rep 1 = 1.24; nuclear/cytoplasmic p65 ratio, rep 2 = 0.861; low cell count flag fewer than 50 cells per well; well left out of scoring; inactive.
After knock-down of Ccdc12 (coiled-coil domain containing 12), the screen gave p65 translocation robust z-score -1.82; nuclear/cytoplasmic p65 ratio, rep 1 = 0.991; nuclear/cytoplasmic p65 ratio, rep 2 = 1.39; low cell count flag enough cells to score; active.
After knock-down of Acin1 (apoptotic chromatin condensation inducer 1), the record shows p65 translocation robust z-score 0.33; nuclear/cytoplasmic p65 ratio, rep 1 = 1.68; nuclear/cytoplasmic p65 ratio, rep 2 = 1.66; low cell count flag enough cells to score; inactive.
For Or8b1c (olfactory receptor family 8 subfamily B member 1C), the entry reads p65 translocation robust z-score 0.74; nuclear/cytoplasmic p65 ratio, rep 1 = 1.5; nuclear/cytoplasmic p65 ratio, rep 2 = 1.39; low cell count flag enough cells to score; inactive.
After knock-down of Tm2d2 (TM2 domain containing 2) the results were p65 translocation robust z-score 1.73; nuclear/cytoplasmic p65 ratio, rep 1 = 1.89; nuclear/cytoplasmic p65 ratio, rep 2 = 1.69; low cell count flag enough cells to score; inactive.
Fgfbp1 (fibroblast growth factor binding protein 1) gave p65 translocation robust z-score -0.81; nuclear/cytoplasmic p65 ratio, rep 1 = 1.3; nuclear/cytoplasmic p65 ratio, rep 2 = 1.3; low cell count flag enough cells to score; inactive.
